Measurements reported in PubChem BioAssay AID1224828 (NIAID, 2016)

Screen: 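Find genes required for NF-kappaB p65 moving into the nucleus after LPS in mouse macrophages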 (primary screen)
Cell system: mouse RAW264.7 G9 macrophage reporter cells (GFP-p65, Tnf promoter-mCherry)
Knock-down reagent: siRNA pool against mouse genes, 100 nM
Timing: 2 days siRNA transfection, then 40 min LPS before fixation
Conditions: LPS (Salmonella minnesota R595) at 10 ng/ml
Measured: 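Imaged p65 nuclear translocation ratio, normalised to the plate median, converted to robust z-scores and averaged across two replicates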
Scale: p65 translocation robust z-score: higher = more nuclear NF-kappaB p65 after LPS than the plate median; nuclear/cytoplasmic p65 ratio: higher = more nuclear NF-kappaB p65
Hit rule: 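Active if robust z is above 3.3 (negative regulators) or below -1.56, the Tlr4 control median (positive regulators); activity score 50 or more; control wells not called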
Calls: active = hit (p65 shift raised or lowered); inactive = no clear change
In all, the deposit lists about 17,000 reagents; this is an unselected part. 762 of them (4.5%) were called active. 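Active calls include both raised and lowered p65 entry, mostly lowered; wells with fewer than 50 cells lack a z-score.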 Raw values vary from plate to plate and are shown uncorrected. Unmarked entries are inactive.

Mzb1: nuclear/cytoplasmic p65 ratio, rep 1 = 1.31; nuclear/cytoplasmic p65 ratio, rep 2 = 1.24; low cell count flag = fewer than 50 cells per well; well left out of scoring
Tmem43: nuclear/cytoplasmic p65 ratio, rep 1 = 1.38; nuclear/cytoplasmic p65 ratio, rep 2 = 1.39; low cell count flag = fewer than 50 cells per well; well left out of scoring
Ints10: nuclear/cytoplasmic p65 ratio, rep 1 = 1.41; nuclear/cytoplasmic p65 ratio, rep 2 = 1.68; low cell count flag = fewer than 50 cells per well; well left out of scoring
Fshr: p65 translocation robust z-score = 0.07; nuclear/cytoplasmic p65 ratio, rep 1 = 1.5; nuclear/cytoplasmic p65 ratio, rep 2 = 1.61; low cell count flag = enough cells to score

2 entries from above, reduced to “nuclear/cytoplasmic p65 ratio, rep 2”.
Ints10 = 1.68
Fshr = 1.61

Additional reagents:
Ccdc40: p65 translocation robust z-score = 0.8; nuclear/cytoplasmic p65 ratio, rep 1 = 1.71; nuclear/cytoplasmic p65 ratio, rep 2 = 1.96; low cell count flag = enough cells to score
Pcdhgb7: p65 translocation robust z-score = 0.72; nuclear/cytoplasmic p65 ratio, rep 1 = 1.51; nuclear/cytoplasmic p65 ratio, rep 2 = 1.35; low cell count flag = enough cells to score
Nqo1: p65 translocation robust z-score = 0.84; nuclear/cytoplasmic p65 ratio, rep 1 = 1.57; nuclear/cytoplasmic p65 ratio, rep 2 = 1.51; low cell count flag = enough cells to score
Egfbp2: p65 translocation robust z-score = 1.1; nuclear/cytoplasmic p65 ratio, rep 1 = 1.68; nuclear/cytoplasmic p65 ratio, rep 2 = 1.6; low cell count flag = enough cells to score
Islr: p65 translocation robust z-score = -0.12; nuclear/cytoplasmic p65 ratio, rep 1 = 1.46; nuclear/cytoplasmic p65 ratio, rep 2 = 1.48; low cell count flag = enough cells to score
C3: p65 translocation robust z-score = -0.83; nuclear/cytoplasmic p65 ratio, rep 1 = 1.47; nuclear/cytoplasmic p65 ratio, rep 2 = 1.47; low cell count flag = enough cells to score
Catsperz: p65 translocation robust z-score = -1.37; nuclear/cytoplasmic p65 ratio, rep 1 = 1.27; nuclear/cytoplasmic p65 ratio, rep 2 = 1.19; low cell count flag = enough cells to score
Pkdcc: p65 translocation robust z-score = -0.08; nuclear/cytoplasmic p65 ratio, rep 1 = 1.66; nuclear/cytoplasmic p65 ratio, rep 2 = 1.38; low cell count flag = enough cells to score
